{
  "source": "patent US6685912B2",
  "about": "“Post-labeling stabilization of radiolabeled proteins and peptides” (Rhomed Incorporated, priority 1996, dated 2004)",
  "assay": "Labeling efficiency of Re-188-RC-160 with ascorbic acid present during labeling (C18 SepPak, RP-HPLC, TLC)",
  "format": "physicochemical",
  "description": "The results obtained by analytical RP-HPLC were confirmed by TLC studies and by isocratic elutions from C-18 SepPak columns. […] The RP-HPLC results were confirmed by TLC. […] The addition of ascorbate, or ascorbate/sulfite solutions, maximized the reduction of the peptide RC-160, which is present in excess, without compromising ^188Re-RC-160. The radiolabeling kit could be formulated with an excess of stannous ions and RC-160 to accommodate a variety of labeling situations. In the presence of ^188Re, the RC-160 and stannous ions interact to result in what is believed to be metal-cyclized ^188Re-RC-160. […] Since ^188Re is produced essentially carrier-free from a 188W/^188Re generator, it is hypothesized that excess stannous ions will reduce the RC-160 not complexed to ^188Re. […] The net result is a stable radiolabeled peptide with a very high specific activity.",
  "data": [
    {"substance": "Re-188-RC-160: RC-160, cyclic somatostatin analogue D-Phe-Cys-Tyr-D-Trp-Lys-Val-Cys-Trp-NH2, radiolabeled with 188Re using stannous kit (WKVCW; D-Phe, D-Trp, disulfide, amide, 188Re label; printed: Trp-Lys-Val-Cys-Trp-)", "values": [
      {"measurement": "radiolabeling", "setting": "400 μg ascorbic acid added prior to the addition of the rhenium", "value": "severely compromised"},
      {"measurement": "labeling efficiency", "setting": "labeled in the presence of 400 μg ascorbic acid, further ascorbic acid added after the labeling", "value": "did not result in any improvement"},
      {"measurement": "radiolabeling", "setting": "same amount and concentration of ascorbate added prior to the addition of the rhenium", "value": "not effectively radiolabeled"}
    ]}
  ]
}
